In PubChem BioAssay AID540276 (National Center for Advancing Translational Sciences (NCATS), 2011):
Where “and” joins values, the source holds several entries; their conditions need not be identical. Equal values may be shown once. About 5,400 (1.8%) of roughly 300,000 compounds were called active. The shares of active, inactive and inconclusive entries below differ from those in the screen. Calls come from the whole dose curve; tested in HEK293 cells. Potencies beside an inconclusive call are fits to weak or partial responses and may not hold up.

Experiment: qHTS for inhibitors of binding or entry into cells for Marburg Virus
Details: Marburg virus pseudotyped entry inhibition, cell reporter; series mostly up to 37.8 µM
Potency is the fitted concentration of half-maximal effect.

SMILES | Potency
Cc1ccc(CCNC(=O)c2ccc3nc(N4CCC(C)CC4)sc3c2)cc1 | inactive
CCn1c(SCC(=O)O)nnc1-c1cc2c(C)nn(-c3ccccc3)c2s1 | inconclusive: 17.8 µM [activator, single point]
CN(CC(=O)Nc1cccc(F)c1)C(=O)/C=C/c1cc(Br)ccc1OC(F)F | inconclusive: 20 µM [inhibitor, partial curve, poor fit]
COc1ccc(-c2cc(-c3ccccc3)n[nH]2)c(O)c1 | inconclusive: 6.31 µM [activator, single point]
CC1(O)CC2CC1C(C(=O)O)C2C(=O)O (stereo not drawn) | inactive
COc1ccccc1-n1cnnc1SCC(=O)Nc1ccccc1 | inconclusive: 35.5 µM [activator, single point]
O=C(CN(Cc1ccco1)S(=O)(=O)c1ccccc1)N/N=C/c1ccccc1C(=O)O | inactive
COC(=O)c1cc(NC(=O)c2ccccc2)c(=O)oc1C/C=N\OCc1ccc(Cl)cc1Cl | inconclusive: 0.112 µM [activator, full curve, poor fit]
CCCN(CCC)CCNC(=O)C1c2ccccc2C(=O)N(CCOC)C1c1ccc(F)cc1 (stereo not drawn) | inconclusive: 0.58 µM [inhibitor, full curve, poor fit]
COCCCNC(=O)Cn1cnc2sc(C)c(S(=O)(=O)N3CCC(C)CC3)c2c1=O | inactive
CC1CCC2C(=O)N(c3ccc(C(=O)Oc4cccc5cccnc45)cc3)C(=O)C2C1 (stereo not drawn) | inconclusive: 35.5 µM [inhibitor, single point]
CC(=O)Nc1ccc(N(C(=O)c2ccco2)C(C(=O)NC2CCCC2)c2ccncc2)cc1 (stereo not drawn) | inactive
CC1CCc2c(sc3ncn(CCO)c(=O)c23)C1 (stereo not drawn) | inactive
CCOc1ccccc1N1CCN(C(=O)c2ccc3c(c2)OCO3)CC1 | inconclusive: 6.31 µM [inhibitor, single point]
CN(C(=O)Cn1nnc2ccccc2c1=O)C1CCCCC1 | inconclusive: 6.31 µM [activator, partial curve, poor fit]
COc1ccc(-c2ccc(SCC(=O)NCC3CCCO3)nn2)cc1OC (stereo not drawn) | inactive
Cc1cc(C)c2sc(C)[n+](CCCS(=O)(=O)[O-])c2c1 | inconclusive: 1.26 µM [inhibitor, partial curve, poor fit]
O=C(NC1(C(F)(F)F)NC(=O)N(CC2CCCCC2)C1=O)c1ccco1 (stereo not drawn) | inactive
Cc1ccc(NC(=O)c2c(C(F)(F)F)nn(C)c2SCc2ccc(Cl)cc2)cc1C | inconclusive: 25.9 µM [inhibitor, single point]
CS(=O)(=O)N(Cc1ccc(C(=O)NCCSc2ccccn2)cc1)c1ccccc1 | inconclusive: 1.26 µM [inhibitor, single point]
CCOC(=O)C1(CC2CCCCO2)CCN(C(=O)Nc2ccc(SC)cc2)CC1 (stereo not drawn) | inconclusive: 22.4 µM [inhibitor, partial curve, poor fit]
CC(NC(=O)CCSCCC(=O)NC(C)c1ccccc1)c1ccccc1 (stereo not drawn) | inconclusive: 3.55 µM [inhibitor, full curve, poor fit]
O=C(Nc1ccc(N2CCCC2)c(Cl)c1)c1ccc2c(c1)OCCO2 | inconclusive: 17.8 µM [inhibitor, single point]

SMILES | Potency
CSc1ccccc1C(=O)Nc1ccc2c(c1)OCO2 | inactive
O=c1c2ccccc2nnn1COc1ccc(F)cc1Cl | inconclusive: 5.62 µM [activator, single point]
O=C(Nc1ccccc1N1CCN(c2ccccc2)CC1)c1cccc(F)c1 | inactive
O=c1n(Cc2ccccc2Cl)c2ccccc2c2nc(-c3ccccc3)nn12 | inactive
O=C(CNC(=O)c1ccco1)NCC(=O)OCc1c(F)cccc1Cl | inconclusive: 35.5 µM [activator, single point]
Fc1ccc(N2CCN(Cc3cn[nH]c3-c3ccccc3)CC2)cc1 | inconclusive: 25.1 µM [inhibitor, single point]
N=C(N)SCc1cn(-c2ccccc2)nc1-c1ccc(Br)cc1 | inconclusive: 6.31 µM [inhibitor, partial curve, poor fit]
Cc1cc(SCC(N)=O)nc(SCC(=O)c2ccccc2)n1 | inactive
Cc1nc(-c2ccc(F)cc2)c(CC(=O)N2CCN(S(=O)(=O)c3ccc(F)cc3)CC2)s1 | inconclusive: 8.91 µM [inhibitor, partial curve, poor fit]
CCCCn1c(=N)n(CCCOc2ccc(F)cc2)c2ccccc21 | active: 10 µM
Cc1ccc(C(=O)c2c[nH]cc2-c2ccccc2)cc1 | inactive
COc1cc(/C=N/N=C2/C(=O)Nc3ccccc32)ccc1O | inconclusive: 2.82 µM [activator, single point]
Cc1ccccc1OCCc1c(C)[nH]c(=S)[nH]c1=O | inconclusive: 0.631 µM [inhibitor, full curve, poor fit]
CNCCOc1ccccc1OC(C)C | inconclusive: 5.62 µM [inhibitor, single point]
c1ccc2[nH]c(SCC3CCCCO3)nc2c1 (stereo not drawn) | inconclusive: 35.5 µM [inhibitor, single point]
c1ccc(Cn2ncc3c(N4CCN(C(c5ccccc5)c5ccccc5)CC4)ncnc32)cc1 | inconclusive: 14.1 µM [inhibitor, partial curve, poor fit]
Cc1nn(CCC#N)c(NC(=O)c2ccccc2)c1P(=O)(Nc1ccc(Br)cc1)N1CCOCC1 (stereo not drawn) | inconclusive: 4.47 µM [activator, full curve, poor fit]
Cc1ccc(Oc2nnc(-c3ccccc3)c3ccccc23)cc1 | inactive
COC(=O)[C@@H]1CC[C@H](C)[C@@H](c2ccc(C)cc2)N1C(=O)c1ccc(/C=N\OC[C@@H](O)[C@H]2O[C@H]3OC(C)(C)O[C@H]3[C@@H]2O)cc1 | inactive
CCOc1ccc2c(c1)C(c1ccc(C)cc1)=NNC(c1ccc(OC)cc1)=N2 | inconclusive: 5.8 µM [inhibitor, partial curve, poor fit]
COc1ccccc1NC(=O)c1ccc(COc2ccc(C)c(C)c2)o1 | inconclusive: 7.94 µM [activator, partial curve, poor fit]
O=C1CN(c2ccccc2)C(=S)N1C(=O)c1ccc(Br)cc1 | inconclusive: 6.31 µM [activator, single point]
Cc1cccc(N2CCN(S(=O)(=O)c3c(C)nc4scc(C)n4c3=O)CC2)c1C | inconclusive: 6.31 µM [activator, single point] and inconclusive: 1.12 µM [inhibitor, full curve, poor fit]

SMILES | Potency
COc1ccc(NC(=O)C2CCOC(C)(C)C2)cc1 (stereo not drawn) | inconclusive: 6.31 µM [activator, partial curve, poor fit]
Cc1ccccc1OCC(O)CNC1CCC(NCC(O)COc2ccccc2C)CC1 (stereo not drawn) | active: 1.12 µM
COc1ccccc1NC(=O)NCCCCc1ccccc1 | inconclusive: 35.5 µM [inhibitor, single point]
O=c1c2cc(Br)ccc2nc(-c2ccc(Cl)cc2)n1O | inactive
CSc1ccccc1C(=O)NCCOc1cccc(C)c1 | inconclusive: 35.5 µM [inhibitor, single point]
COc1cc2c(cc1OC)CN(C(=O)Nc1ccccc1)CC2 | inconclusive: 0.562 µM [activator, partial curve, poor fit]
CCN1CCN(c2ccc([N+](=O)[O-])c(Sc3nc4ccccc4[nH]3)c2)CC1 | inconclusive: 10 µM [inhibitor, partial curve, poor fit]
CC(C)Oc1cccc(C(=O)Nc2ccc(Br)cc2F)c1 | inconclusive: 17.8 µM [inhibitor, single point]
COc1ccc(Cn2nnnc2CN(Cc2cc3cc(C)ccc3[nH]c2=O)C2CCCC2)cc1 | inconclusive: 32.6 µM [inhibitor, single point]
C=CCSc1nnc2c(n1)OC(c1cccnc1)Nc1ccccc1-2 (stereo not drawn) | inactive
COc1ccccc1-c1ccc(/C=C2/C=C(C)OC2=O)o1 | inconclusive: 35.5 µM [inhibitor, single point]
Cn1c(Cn2cnc3ccccc32)nnc1SCC(=O)CC(=O)Nc1ccccc1 | inactive
O=C(Nc1nc(-c2cccnc2)cs1)c1ccccc1Cl | inactive
O=C(/C=C\c1ccc2c(c1)OCO2)Nc1c2c(nn1-c1ccc(Cl)cc1)CSC2 | inactive
COc1ccc(NC(=O)c2ccc(-c3ccc([N+](=O)[O-])cc3)o2)cc1 | inconclusive: 6.31 µM [inhibitor, single point]
Oc1ccc(/C(Cc2ccc3ccccc3n2)=N\Nc2ccccc2)c(O)c1 | inconclusive: 20 µM [inhibitor, partial curve, poor fit]
COc1ccc(C)cc1NC(C)C(=O)NC(=O)NC1CCCCC1 (stereo not drawn) | inactive
COc1ccc(/C=C2\SC(=O)N(CCn3cnnn3)C2=O)cc1 | inactive
CC1CCN(CCc2nc3cc(NC(=O)Nc4ccccc4)ccc3n2C)CC1 | inconclusive: 29.1 µM [inhibitor, single point]
O=c1ccc2cc3c(-c4ccccc4)coc3cc2o1 | inconclusive: 6.31 µM [activator, single point]
NC(=O)c1nsc(C(=O)N(Cc2ccco2)C(C(=O)NCc2ccccc2)c2ccc(O)cc2)c1N (stereo not drawn) | inconclusive: 12.6 µM [inhibitor, partial curve, poor fit]
Cc1cc(C)c2nc(C)cc(N/N=C/c3ccc(O)cc3)c2c1 | inconclusive: 10 µM [inhibitor, partial curve, poor fit]

Fetched by compound from above, 5 records:
SMILES | Potency
Cc1ccc(NC(=O)c2c(C(F)(F)F)nn(C)c2SCc2ccc(Cl)cc2)cc1C | inconclusive: 25.9 µM [inhibitor, single point]
Cc1cc(C)c2sc(C)[n+](CCCS(=O)(=O)[O-])c2c1 | inconclusive: 1.26 µM [inhibitor, partial curve, poor fit]
CSc1ccccc1C(=O)NCCOc1cccc(C)c1 | inconclusive: 35.5 µM [inhibitor, single point]
CC1CCc2c(sc3ncn(CCO)c(=O)c23)C1 (stereo not drawn) | inactive
CSc1ccccc1C(=O)Nc1ccc2c(c1)OCO2 | inactive
